# Experimental data: PubChem BioAssay (EPA / NIEHS)
# Amino acid sequences for entries named in this document (tags omitted).
# UniProt P16257, whole entry, looked up: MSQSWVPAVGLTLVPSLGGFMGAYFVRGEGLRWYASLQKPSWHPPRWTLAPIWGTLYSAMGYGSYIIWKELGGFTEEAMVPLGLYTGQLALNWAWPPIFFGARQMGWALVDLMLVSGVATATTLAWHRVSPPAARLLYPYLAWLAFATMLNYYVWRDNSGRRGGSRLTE
# Inconclusive means that the source gave no clear call. Such entries were picked first, then a sample of the others. Where the call is inconclusive, the potency comes from a doubtful curve fit. Activity calls are given as the source filed them. Rule for the calls: active = hit-call score of the fitted dose curve at least 0.9, where 1 is the maximum; inconclusive = response in the unintended direction; inactive = score below 0.9.
# Target: rat Peripheral-type Benzodiazepine Receptor (PBR), Tspo (gene 24230) (UniProt P16257)
# Experiment: NVS_MP_rPBR: NovaScreen (NVS) Membrane Protein Assay for rat Peripheral-type Benzodiazepine Receptor (PBR) (AID 2283335)
# Protocol: NVS_MP_rPBR is a biochemical, single-readout assay that uses extracted gene-proteins from Rat kidney membranes in a tissue-based cell-free assay. Measurements were taken 1 hour after chemical dosing in a 48-well plate.NVS_MP_rPBR is one of one assay component(s) measured or calculated from the NVS_MP_rPBR assay. It is designed to make measurements of radioligand binding, a form of binding reporter, as detected with scintillation counting signals by Filter-based radiodetection technology.Data from the assay component NVS_MP_rPBR was analyzed into 1 assay endpoint. This assay endpoint, NVS_MP_rPBR, was analyzed in the positive analysis fitting direction relative to DMSO as the negative control and baseline of activity. Using a type of binding reporter, loss-of-signal activity can be used to understand changes in the binding as they relate to the gene Tspo. Furthermore, this assay endpoint can be referred to as a primary readout, because the performed assay has only produced 1 assay endpoint. To generalize the intended target to other relatable targets, this assay endpoint is annotated to the transporter intended target family, where the subfamily is cholesterol transporter.
# Binding assays used specific radioligands (tritiated, iodinated) with non-radioactive competitive displacement ligands in agonist or antagonist protocols (as indicated) and various reference compounds and inhibitors to titrate specific binding to receptors and transporters. Most enzyme assays (CYPs, kinases, phosphatases, proteases, HDACs) used recombinant protein and specific substrates (fluorescence mostly, some colorimetric and radioactive) and inhibitors, followed by a biochemical separation of substrate and product. All assays for the biochemical HTS were initially run in duplicate at a single concentration (10 uM for CYP450 assays and 25 uM for all others). […] Each assay was run with positive and negative controls, and concurrent controls on every plate. The follow-up (secondary) screen tested active chemical-pairs in concentration series, as well as a few additional assays not tested in the primary screen, some selected negative inactives, and several cases re-run in the concentration series for confirmatory purposes.
Structure (SMILES),AC50,outcome
COc1ccc(S(=O)(=O)N2C(=O)[C@@](c3ccccc3OC)(N3C[C@H](O)C[C@H]3C(=O)N(C)C)c3cc(Cl)ccc32)c(OC)c1,inconclusive: 6.51 µM,
NC(=O)Nc1ccc(Cl)cc1,inconclusive: 0.638 µM,
CCN=c1cc2oc3cc(NCC)c(C)cc3c(-c3ccccc3C(=O)OCC)c-2cc1C,active: 5.08 µM,
O=c1c(O)c(-c2ccc(O)cc2O)oc2cc(O)cc(O)c12,,inactive
COC(=O)c1ccccc1C(=O)O,inconclusive: 25 µM,
CN(Cc1cnc2nc(N)nc(N)c2n1)c1ccc(C(=O)N[C@@H](CCC(=O)O)C(=O)O)cc1,inconclusive: 25 µM,
Oc1ccc(Cl)cc1Cc1cc(Cl)ccc1O,inconclusive: 45.8 µM,
CC[C@H](c1ccc(O)cc1)[C@@H](CC)c1ccc(O)cc1,inconclusive: 0.102 µM,
CC(C)c1ccc2c(C(C)C)cc(C(C)C)c(S(=O)(=O)O)c2c1,,inactive
NCc1cccc(C2CCN(C(=O)c3ccc(C#Cc4ccccc4F)o3)CC2)c1,,inactive
CCOc1ccc2[nH]cc(C(=O)NCc3ccccc3)c(=O)c2n1,inconclusive: 25 µM,
CN1CCN(Cc2cc(-c3ccc4[nH]c(=O)oc4c3)co2)[C@@H](c2ccc(F)cc2)C1,inconclusive: 22 µM,
Oc1ccc(/C=C/c2cc(O)cc(O)c2)cc1,,inactive
CCCCCCC=O,inconclusive: 7.44 µM,
O=C(c1ccccc1)c1ccc(O)cc1O,inconclusive: 0.958 µM,
CCOC(=O)/C=C\C(=O)OCC,inconclusive: 5.92 µM,
O=P(OC(CCl)CCl)(OC(CCl)CCl)OC(CCl)CCl,active: 2.36 µM,
Cc1ccc(-c2cc(C(F)(F)F)nn2-c2ccc(S(N)(=O)=O)cc2)cc1,,inactive
C[C@]12CC[C@@H]3c4ccc(O)cc4C[C@@H](CCCCCCCCCS(=O)CCCC(F)(F)C(F)(F)F)[C@H]3[C@@H]1CC[C@@H]2O (stereo partly specified),inconclusive: 15.5 µM,
NC(=O)c1c(Cl)cccc1Cl,,inactive
[Cl][Eu]([Cl])[Cl],inconclusive: 25 µM,

# Some of these compounds in order of count of non-hydrogen atoms, largest number first.
Structure (SMILES),AC50,outcome
CN1CCN(Cc2cc(-c3ccc4[nH]c(=O)oc4c3)co2)[C@@H](c2ccc(F)cc2)C1,inconclusive: 22 µM,
O=c1c(O)c(-c2ccc(O)cc2O)oc2cc(O)cc(O)c12,,inactive
NC(=O)c1c(Cl)cccc1Cl,,inactive
